Data as given in PubChem BioAssay AID504784 (Drosophila RNAi Screening Center, 2011)
Purpose: 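Search for regulators of lipid droplet storage in oleate-fed fly cells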 (primary screen). System: Drosophila Kc167 embryonic cells. Reagent: long dsRNA against Drosophila genes, about 250 ng dsRNA per well. Duration: 4 days. Treatment: cells fed 400 µM oleic acid bound to BSA. Read-out: 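Microscope images give a droplet-to-nucleus area ratio, taken as log and converted to a screen-wide B-score; higher values mean greater lipid storage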. Scale: droplet/nuclear area B-score: higher = more stored lipid (overstorage).
The screen tested about 17,000 reagents; this is a random part of those with a known target gene and a result. 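Each column is one replicate's B-score; the combined score over replicates was not deposited, so single values may mislead.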 The numbers tell different reagents against one gene apart. Names joined by + are all predicted targets of the reagent. Not all columns of the deposit are shown.

With knock-down of CG34135 + Nasp, the screen gave droplet/nuclear area B-score, replicate 1 = 0.0221.
Silencing of Atf-2 (Activating transcription factor-2) #1 resulted in: droplet/nuclear area B-score, replicate 1 = -3.03.
Atf-2 (Activating transcription factor-2) #2 showed droplet/nuclear area B-score, replicate 1 = 0.372.
Vha26 (Vacuolar H[+]-ATPase 26kD subunit) showed droplet/nuclear area B-score, replicate 1 = 0.0272.
Silencing of Theg (Testicular haploid expressed gene) resulted in: droplet/nuclear area B-score, replicate 1 = -0.179.
Knock-down of glob1 (globin 1) resulted in: droplet/nuclear area B-score, replicate 1 = -0.115.
For CG13088, the values are droplet/nuclear area B-score, replicate 1 = 2.88.
After knock-down of Jhbp7 (Juvenile hormone binding protein 7), the record shows droplet/nuclear area B-score, replicate 1 = -2.45.

Records above whose gene name starts with C or c (2):
CG34135 + Nasp — droplet/nuclear area B-score, replicate 1: 0.0221
CG13088 — droplet/nuclear area B-score, replicate 1: 2.88

Continued.
Knock-down of CG11841 came out at: droplet/nuclear area B-score, replicate 1 = -0.997.
CNT2 (Concentrative nucleoside transporter 2) scored droplet/nuclear area B-score, replicate 1 = -0.0613.
For Mal-A8 (Maltase A8), the values are droplet/nuclear area B-score, replicate 1 = -0.187.
Against Fbp2 (Fat body protein 2), the entry reads droplet/nuclear area B-score, replicate 1 = 0.644.
Knock-down of dpr6 (defective proboscis extension response 6) #1 came out at: droplet/nuclear area B-score, replicate 1 = -2.03.
Depletion of dpr6 (defective proboscis extension response 6) #2 came out at: droplet/nuclear area B-score, replicate 1 = -0.648.
With knock-down of dpr6 (defective proboscis extension response 6) #3, the record shows droplet/nuclear area B-score, replicate 1 = 2.01.
Against flw (flapwing) #1, the values are droplet/nuclear area B-score, replicate 1 = -0.276.
flw (flapwing) #2 gave droplet/nuclear area B-score, replicate 1 = -0.448.
